Reference: article PMC9980482
Results are given in words; binding and its absence hold for the method and conditions named. In cells and extracts the contact can be indirect.

B1: phosphoinositide-dependent protein kinase-1 (PDK1), endogenous in 293 T cells (protein, UniProt O15530 1-556)
chain: MARTTSQLYDAVPIQSSVVLCSCPSPSMVRTQTESSTPPGIPGGSRQGPAMDGTAAEPRPGAGSLQHAQPPPQPRKKRPEDFKFGKILGEGSFSTVVLARELATSREYAIKILEKRHIIKENKVPYVTRERDVMSRLDHPFFVKLYFTFQDDEKLYFGLSYAKNGELLKYIRKIGSFDETCTRFYTAEIVSALEYLHGKGIIHRDLKPENILLNEDMHIQITDFGTAKVLSPESKQARANSFVGTAQYVSPELLTEKSACKSSDLWALGCIIYQLVAGLPPFRAGNEYLIFQKIIKLEYDFPEKFFPKARDLVEKLLVLDATKRLGCEEMEGYGPLKAHPFFESVTWENLHQQTPPKLTAYLPAMSEDDEDCYGNYDNLLSQFGCMQVSSSSSSHSLSASDTGLPQRSGSNIEQYIHDLDSNSFELDLQFSEDEKRLLLEKQAGGNPWHQFVENNLILKMGPVDKRKGLFARRRQLLLTEGPHLYYVDPVNKVLKGEIPWSQELRPEAKNFKTFFVHTPNRTYYLMDPSGNAHKWCRKIQEVWRQRYQSHPDAAVQ
B2: phosphoinositide-dependent protein kinase-1 (PDK1), endogenous in Caco-2 cells (protein, UniProt O15530 1-556)
chain: B1 chain

Experiments:
[1] = molecular target: His-SopF (Salmonella effector SopF expressed from pcDNA3.1-SopF-6*His-T2A-GFP) (Salmonella enterica serovar Typhimurium); assay: co-IP; 293 T cells transfected with empty vector or pcDNA3.1-SopF-6*His-T2A-GFP for 48 h; His-tagged SopF immunoprecipitated from cell lysates, blot for endogenous PDK1
[2] = molecular target: SopF:His translocated by S. Typhimurium (STM-ΔsopF/psopF:His) (Salmonella enterica serovar Typhimurium SL1344); assay: co-IP; Caco-2 cells infected with STM-ΔsopF/pBAD or STM-ΔsopF/psopF:His at MOI 100 for 2 hpi and 24 hpi; His-Tag monoclonal antibody and protein A/G Plus-Agarose, 4°C, five washes with PBS; blot for endogenous PDK1

Row | Binder | binding [1] | binding [2]
1 | B1 | no binding | 
2 | B2 |  | no binding
